Our source for the z-score values is PubChem BioAssay AID1508600 (Functional Genomics Laboratory (NCATS/FGL), 2020).

Out of some 53,000 sequences screened, about 3,700 (7%) were called active.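 How the source made its calls: active means gene knockdowns whose robust z-score for IL-1 alpha signal is at least 2 or at most -2, so actives lie on both sides; inactive means the rest.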 Some of the results follow.

The test can be described thus: Components of the Cytosolic LPS Sensing Pathway: Gene Identification via Genome-wide siRNA Screen.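 Further: robust z of the log signal after scaling to non-targeting control siRNA wells of the plate.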 Conditions: RAW264.7 macrophages, IL-1a HTRF, actives lie on both sides, screened at 100 nM (by protocol), cells primed 5 h with Pam3CSK4 first. The gist of the method:
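Knockdown: 100 nM siRNA, 48h, RAW264.7. Stimulation: Pam3CSK4 5 h, then LipidA via TransIT-TKO 24 h. Output: supernatant IL-1a HTRF, negative-control-normalized, log robust z-score; viability by CellTiter-Glo.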
In general terms: TR-FRET usually uses a lanthanide donor and a delayed reading to cut background.
Turning to GGCCAAAUACGUCAAGAGCTT against Fam110b, the z-score is inactive: 0.588. With GGAGAUCACCUUCCUGAAGTT against Comp the figure was inactive: -1.51. On to GGUGAAAAGAUGCAGGUGATT against Atp1a3, for which the z-score is inactive: -1.1. With GGAAUUGGCAUCCUUAAGCTT against Cops3 the figure was active: 2.43; with CCUCACUGUAAUGUAACUUTT against Scarf2, inactive: -0.683; with CGUGACUAUUCUGAUAAGUTT against Arl15, inactive: 0.134.

Turning to GCUGGAGCUAUCCAACACUTT against Chst11, the z-score was inactive: -1.73.

Regarding GGUUCCUUCGUUGUGUUGATT against Irx3, the z-score is inactive: -1.1. Regarding CGAGCUGUGUUUUUGGCUGTT against Mrpl11, the z-score was inactive: 1.2. Then GGAGGAUGACAAAAUCUAUTT against Rnf113a2, with inactive: 1.25; and GAAUCUGGUGAAGUAUUAUTT against Phip, with inactive: 0.518. With CCGGAAAAUACGCACUGUATT against Obox6 the figure was inactive: -1.27; with CCCUUUGUGUGGAUUAUAUTT against Sp9, active: 2.91. With GCUAUAGAUUGGCUUUAUGTT against Depdc1a the figure was inactive: 0.727.

With GGACAGCUUCAUCAAGCCUTT against Cep89, the z-score is inactive: -0.628. Then GGCUCUAAAUUUUUUGUUCTT against Derl1, with inactive: 0.532. On to GCAAGUGAAAUCCAAACAGTT against Nabp1, for which the z-score was inactive: -1.54.

Consider GGCUGGAUGUCCUAUAGUCTT against Adam24, for which the z-score was inactive: 1.03. Take GGUGGACUCACAUUAUUGUTT against Dctn4: the z-score was inactive: 0.535. With “GGUGAUAGAGCACAAGGCUTT against G930045G22Rik” the figure was inactive: 0.0132; with GGCACUCCAUCAAAGGCUUTT against Cd209a, inactive: -1.38; with GGCAAAGAGAUUGACAUUGTT against Kif2c, inactive: -0.991. Then CCAUAUCUCUAUCUACUGGTT against Rs1, with inactive: 0.546; and GGUUUGAAAUCAGCAUGAUTT against Mpzl3, with inactive: 0.652; and GCAGUCAAUUCCCUUUUACTT against Ankmy1, with inactive: -0.876.

As to GCUUCCUCUAUUCGAUUUUTT against Dennd5a, the z-score is inactive: 0.527. Then CCUGUUCUGCCCUAAAUUUTT against Olfr1155, with inactive: -0.919. With GGUCGGCCAAUUACAAUGUTT against Eml4 the figure was active: 2.16; with “GGUCCAUGAACCUCAGUGUTT against F830045P16Rik”, inactive: -0.561. With GGGAGGACCUUGUGUAUCATT against Igsf21 the figure was inactive: -0.173; with CCUUGACUGGAAUAUAUAATT against Dlc1, inactive: -0.398. GCACCUCUAUUAUAAUAAGTT against Vps13c: the z-score is inactive: -0.453. With GGGUACCAUAUCCUCACCUTT against Ltbp3 the figure was inactive: -1.61; with “CGCAUGCCUGUAAAAUAAATT against 2310057M21Rik”, inactive: -1.37; with UCUGCCACCCUCUCCAAUATT against Olfr1116, inactive: 0.0182. On to GGAAAUAAUGCUUAUGGAUTT against Abcb1b, for which the z-score was inactive: -0.699. With GGACCUGUUGUCAGACUGCTT against Kif20a the figure was inactive: 1.57. As for GCUUGACAAUAAAUCCCACTT against Efcab14, the z-score is inactive: 0.585. With CCUGGCAGACGUGGAACAATT against Ppp1r13l the figure was inactive: -0.102; with CGAGGAUUAAGAGGACUUCTT against Col9a3, inactive: -1.99. Then CCAGAUUCUAUAAUAGAGUTT against Gabrp, with inactive: -0.232. With GGAGCUAUAAUUAACAAGATT against Adam6a the figure was inactive: 0.152. Turning to GCCAUAAGUUAUGAUGUGGTT against Cplx4, the z-score is inactive: -0.733. With GCUCUGAAGCUGAUACUCATT against Rab3ip the figure was inactive: -1.23. With GGGUCCUCUGAAAGUUACCTT against Fndc5 the figure was inactive: 0.497; with GGACCAUUCUGAAGAGCAGTT against Il5ra, inactive: 0.867. With GGUUCCAUGUUGGAUAUCATT against Stk39 the figure was inactive: -1.1. As for GGAUGAAGGCCAUUCAAACTT against Hnrnpd, the z-score is active: 2.04. With GCCUAUUCACCAAAUCACATT against Frrs1 the figure was inactive: 0.408; with GGGCUUUACUGACUUCAAGTT against Hexa, inactive: -0.526; with GGAGAUUCUGUGCAAUGCATT against Dnajc12, inactive: -0.0758. Then GCUGGACAAACGAUGGUCATT against Ift122, with inactive: -1.7; and GGCUCUGUUGUCCUUGACCTT against Epb41l4a, with inactive: -0.97; and GGAAAGGUAAUCCUGACUUTT against Asb17, with inactive: -1.87. Then GGUCCGGGAGUAACUUUUCTT against Mafb, with inactive: -1.36; and GGGACAAUACAUUGAUAGCTT against Vmn1r206, with inactive: -0.625. In the case of GCCUGUCUGCCUUUGCUUCTT against H4c9, the z-score is active: 2.47. With GGACGGCAGAAAGCAUUUATT against Olfr317 the figure was inactive: 0.693.

In the case of GGUUAACACUGGACGUGGUTT against Vps37c, the z-score was inactive: -0.0487. With GGUGAAAACCUCAUAAAUGTT against Zfp945 the figure was inactive: 0.878. For the sequence GGCAAAGGAUGAUUCGGCUTT against Tfam, the z-score was inactive: 0.495. For the sequence GGUUGGGCAUUGCACUAACTT against Alg11, the z-score is inactive: -0.948. As to GGGAACCAUGGGAAUAUUUTT against Acaa1b, the z-score was inactive: -0.0771. GGAGCUUAUGCAUGAGUUUTT against Slc16a3: the z-score is inactive: -0.768. In the case of GGUUUUUGAUGAUUGCUUUTT against Slc49a4, the z-score is inactive: 0.221. GCUCCAUGAAACCCACUCUTT against Zmiz1: the z-score was inactive: -0.656.

Take GCACCUGGAAAUAAAAUGCTT against Selenbp2: the z-score is inactive: -0.899.

On to GGAAUCUCAUGACUCUACCTT against Mybpc2, for which the z-score was inactive: 0.707.
